Patent US10639382B2, “Method for treating leukemia” (National Guard Health Affairs, priority 2017, dated 2020)
Structures can show the parent of a compound that is named as a salt.

What was measured:
Format in all cases: cell-based
Settings in all cases: Homo sapiens, PBMC, compound 10 uM, average over patients, relative to high control (0%) and no-cell low control (100%)
PBMCs from AML patients = test: Primary screening of FDA approved drug library, TitreGlo/CellTiter-Glo cell viability, PBMCs from AML patients
PBMCs from CLL patients = test: Primary screening of FDA approved drug library, TitreGlo/CellTiter-Glo cell viability, PBMCs from CLL patients
PBMCs from CML patients = test: Primary screening of FDA approved drug library, TitreGlo/CellTiter-Glo cell viability, PBMCs from CML patients
PBMCs from ALL patients = test: Primary screening of FDA approved drug library, TitreGlo/CellTiter-Glo cell viability, PBMCs from ALL patients

SMILES	inhibition at 10 µM (PBMCs from AML patients) [%]	inhibition at 10 µM (PBMCs from CLL patients) [%]	inhibition at 10 µM (PBMCs from CML patients) [%]	inhibition at 10 µM (PBMCs from ALL patients) [%]
CN1CCC[C@@H]1CCO[C@](C)(c1ccccc1)c1ccc(Cl)cc1 [Clemastine Fumarate]	13.5	55.6	66.4	39.1
Clc1ccc(CO/N=C(\Cn2ccnc2)c2ccc(Cl)cc2Cl)c(Cl)c1 [Oxiconazole Nitrate]	8.7	12.2	61.7	25.7
